Laboratory results as given in patent US20180346562A1 (ANAPTYSBIO, published 2018).
No constants are given. Whether binding was seen depends on the method and setting. Some results given as binding are weak or reduced against the parent protein; the word gives no strength.

Assays:
human IL-33 [1] = molecular target: T1, human IL-33 (human, UniProt O95760 112-270, limits assumed); test: KinExA
T1 sequence (looked up): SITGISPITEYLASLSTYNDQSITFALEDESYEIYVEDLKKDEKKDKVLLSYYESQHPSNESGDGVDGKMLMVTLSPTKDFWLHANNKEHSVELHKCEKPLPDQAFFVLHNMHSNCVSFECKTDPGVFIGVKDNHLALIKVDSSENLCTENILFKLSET

[2] = molecular target: cynomolgus IL-33 (cynomolgus); test: KinExA
human IL-33 [3] = molecular target: T1, human IL-33; test: KinExA solution-phase equilibrium titration: APE4909 at a fixed concentration incubated with human IL-33 as titrant, free antibody captured on beads coated with histidine-tagged human IL-33

Measured: binding

B1: APE4909 antibody (antibody, V domains shown)
VH: QVQLMQSGAEVKKPGASVKVSCKASGYTFTSYWMHWVRQAPGQGLEWMGTIYPRNSNTDYNQKFKARVTMTRDTSTSTVYMELSSLRSEDTAVYYCARPLYYYLTSPPTLFWGQGTLVTVSS
VL: DIQLTQSPSFLSASVGDRVTITCKASQDVGTAVAWYQQKPGKAPKLLIYWASTRHTGVPSRFSGSGSGTEFTLTISSLQPEDFATYYCQQAKTYPFTFGSGTKLEIKR
notes: the claims treat these entries as variable regions; It was detected with an anti-human antibody; also called APE04909; APE4909.02 (lot suffix)
binds: human IL-33 [1] | [2] | human IL-33 [3]
